For one molecule, IC50 and Relative potency results are on record in ChEMBL document CHEMBL1135202, “Design, synthesis and evaluation of 4-imidazolylflavans as new leads for aromatase inhibition” (Bioorg Med Chem Lett, 2002).

Common to all, as to set-up: species or system Placenta
Series [1] addresses T1, Aromatase (Homo sapiens, UniProt P11511).
T1 sequence (P11511 whole entry): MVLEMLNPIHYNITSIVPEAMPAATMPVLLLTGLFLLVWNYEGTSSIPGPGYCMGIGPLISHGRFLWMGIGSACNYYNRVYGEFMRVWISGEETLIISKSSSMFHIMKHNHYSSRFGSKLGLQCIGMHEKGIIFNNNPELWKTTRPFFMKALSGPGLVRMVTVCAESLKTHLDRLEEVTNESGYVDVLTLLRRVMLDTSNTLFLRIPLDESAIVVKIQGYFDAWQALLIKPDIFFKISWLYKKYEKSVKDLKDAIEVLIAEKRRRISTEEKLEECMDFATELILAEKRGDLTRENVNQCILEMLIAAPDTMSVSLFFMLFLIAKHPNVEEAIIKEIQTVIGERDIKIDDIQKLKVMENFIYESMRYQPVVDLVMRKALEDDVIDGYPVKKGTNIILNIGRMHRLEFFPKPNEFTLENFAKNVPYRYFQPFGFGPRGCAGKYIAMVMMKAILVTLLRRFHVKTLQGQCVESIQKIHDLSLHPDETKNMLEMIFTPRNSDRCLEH
The series is described as follows: Inhibition of aromatase activity in human placental microsomes.

Series [2] has as its target T1, Aromatase. In words: Relative potency for aromatase inhibition in human placental microsomes compared to aminoglutethimide.
The target of series [3] is T1, Aromatase. The series is described as follows: Relative potency for aromatase inhibition in human placental microsomes compared to flavanone.

Turning to `COc1ccc2c(c1)OC(c1ccccc1)CC2n1ccnc1` (stereo not drawn), on Aromatase [1], the midpoint of inhibition, the IC50, lay at 0.091 µM. Further, the Relative potency is on record as 57 at Aromatase [2] and 88 at Aromatase [3].
